Data taken from article doi:10.1101/2023.11.27.568816.
These are yes or no findings as the source states them, for the method shown. Some results given as binding are weak or reduced against the parent protein; the word gives no strength.

By UniProt entry, the sequences of proteins in these tests, tags left out.
UniProt Q7KZI7, whole entry: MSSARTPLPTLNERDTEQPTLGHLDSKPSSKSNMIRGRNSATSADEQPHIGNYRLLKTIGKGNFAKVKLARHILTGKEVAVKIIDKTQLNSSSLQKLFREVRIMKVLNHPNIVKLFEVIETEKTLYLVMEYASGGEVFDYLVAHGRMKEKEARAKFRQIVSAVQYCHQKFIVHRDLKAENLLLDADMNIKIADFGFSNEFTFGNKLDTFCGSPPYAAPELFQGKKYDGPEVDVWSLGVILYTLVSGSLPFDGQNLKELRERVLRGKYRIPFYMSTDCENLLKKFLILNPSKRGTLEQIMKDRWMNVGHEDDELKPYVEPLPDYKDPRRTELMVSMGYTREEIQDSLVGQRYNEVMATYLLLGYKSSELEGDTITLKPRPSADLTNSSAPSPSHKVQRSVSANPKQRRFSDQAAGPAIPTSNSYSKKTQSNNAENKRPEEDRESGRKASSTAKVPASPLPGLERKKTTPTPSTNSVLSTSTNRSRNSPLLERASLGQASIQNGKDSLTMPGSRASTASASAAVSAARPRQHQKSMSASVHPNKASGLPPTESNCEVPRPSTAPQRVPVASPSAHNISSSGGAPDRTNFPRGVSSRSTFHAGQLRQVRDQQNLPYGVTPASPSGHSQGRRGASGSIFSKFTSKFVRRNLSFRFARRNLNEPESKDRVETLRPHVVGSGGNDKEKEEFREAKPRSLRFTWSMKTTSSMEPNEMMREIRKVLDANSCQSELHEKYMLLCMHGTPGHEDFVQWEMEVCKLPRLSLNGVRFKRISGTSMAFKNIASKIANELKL
UniProt P42684, whole entry: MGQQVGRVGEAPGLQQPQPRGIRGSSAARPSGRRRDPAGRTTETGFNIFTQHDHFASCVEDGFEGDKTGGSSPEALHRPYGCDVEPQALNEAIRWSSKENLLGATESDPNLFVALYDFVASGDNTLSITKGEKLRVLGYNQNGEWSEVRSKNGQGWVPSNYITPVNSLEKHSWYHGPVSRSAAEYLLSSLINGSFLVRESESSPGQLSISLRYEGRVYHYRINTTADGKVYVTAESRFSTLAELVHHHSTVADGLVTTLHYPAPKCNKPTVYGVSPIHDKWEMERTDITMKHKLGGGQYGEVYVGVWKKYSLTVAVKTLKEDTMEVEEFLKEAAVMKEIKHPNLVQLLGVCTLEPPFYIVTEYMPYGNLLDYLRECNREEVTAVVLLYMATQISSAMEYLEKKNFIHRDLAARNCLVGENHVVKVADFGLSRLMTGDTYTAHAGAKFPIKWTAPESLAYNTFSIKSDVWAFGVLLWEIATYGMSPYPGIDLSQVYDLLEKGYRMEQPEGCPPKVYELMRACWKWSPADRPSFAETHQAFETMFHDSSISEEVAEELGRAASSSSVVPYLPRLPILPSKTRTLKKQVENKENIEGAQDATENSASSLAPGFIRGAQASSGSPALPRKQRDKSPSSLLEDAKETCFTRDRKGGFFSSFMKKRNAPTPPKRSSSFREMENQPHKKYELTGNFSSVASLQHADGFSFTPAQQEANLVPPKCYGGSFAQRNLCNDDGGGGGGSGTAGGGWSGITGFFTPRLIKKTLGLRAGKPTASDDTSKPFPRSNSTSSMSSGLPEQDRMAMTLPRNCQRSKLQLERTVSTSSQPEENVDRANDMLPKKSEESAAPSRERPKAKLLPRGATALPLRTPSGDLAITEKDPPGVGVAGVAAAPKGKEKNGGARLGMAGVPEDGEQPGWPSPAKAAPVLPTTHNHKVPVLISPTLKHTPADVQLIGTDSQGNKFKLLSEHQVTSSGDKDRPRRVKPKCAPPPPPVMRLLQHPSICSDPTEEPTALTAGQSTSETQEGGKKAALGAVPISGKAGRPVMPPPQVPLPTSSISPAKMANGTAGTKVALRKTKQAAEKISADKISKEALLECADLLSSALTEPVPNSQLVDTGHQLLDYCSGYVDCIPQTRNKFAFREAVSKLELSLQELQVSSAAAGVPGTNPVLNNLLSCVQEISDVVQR
UniProt P0DTD2, whole entry: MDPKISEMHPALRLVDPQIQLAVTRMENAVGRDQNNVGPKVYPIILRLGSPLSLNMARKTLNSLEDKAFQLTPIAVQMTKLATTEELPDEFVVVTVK

Experiments:
Assay in all cases: two-hybrid
PHKG2 (human) = biological target: T1, PHKG2 (human) (UniProt P15735)
T1 sequence: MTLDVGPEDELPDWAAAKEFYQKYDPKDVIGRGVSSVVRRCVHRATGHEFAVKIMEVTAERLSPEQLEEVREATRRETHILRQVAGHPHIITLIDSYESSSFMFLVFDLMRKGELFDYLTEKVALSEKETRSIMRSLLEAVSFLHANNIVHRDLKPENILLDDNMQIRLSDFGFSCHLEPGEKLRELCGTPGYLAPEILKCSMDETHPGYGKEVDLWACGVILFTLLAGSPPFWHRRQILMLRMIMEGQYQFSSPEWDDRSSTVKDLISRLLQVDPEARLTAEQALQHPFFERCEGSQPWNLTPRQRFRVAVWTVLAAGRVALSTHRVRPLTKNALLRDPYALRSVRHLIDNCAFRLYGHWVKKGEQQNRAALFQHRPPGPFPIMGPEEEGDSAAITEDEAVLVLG

[1] = biological target: MARK2 (microtubule affinity regulating kinase 2) (human) (UniProt Q7KZI7)
ABL2 (human) = ABL2 (human) (UniProt P42684)

Substance: SARS-CoV-2 NSP5 (from UniProt P0DTD1 3264-3569)
- binding (PHKG2 (human)): binds

Substance: SARS-CoV-2 ORF9b (from UniProt P0DTD2 1-97)
- binding [1]: binds

Substance: SARS-CoV-2 NSP13 (from UniProt P0DTD1 5325-5925)
- binding (ABL2 (human)): binds
